Test results: doi:10.1101/2021.02.07.430173
Where two headings read alike, the source gives them in different places. These are yes or no findings as the source states them, for the method shown. Binding seen in cells or lysates may run through a third protein. Some binding calls cover weakened binding; strength is not graded here. For part of these data: Where a sequence is shown, tags or fusion partners need not be part of it.

Amino acid sequences for entries named in this document (tags omitted).
UniProt Q3TKT4: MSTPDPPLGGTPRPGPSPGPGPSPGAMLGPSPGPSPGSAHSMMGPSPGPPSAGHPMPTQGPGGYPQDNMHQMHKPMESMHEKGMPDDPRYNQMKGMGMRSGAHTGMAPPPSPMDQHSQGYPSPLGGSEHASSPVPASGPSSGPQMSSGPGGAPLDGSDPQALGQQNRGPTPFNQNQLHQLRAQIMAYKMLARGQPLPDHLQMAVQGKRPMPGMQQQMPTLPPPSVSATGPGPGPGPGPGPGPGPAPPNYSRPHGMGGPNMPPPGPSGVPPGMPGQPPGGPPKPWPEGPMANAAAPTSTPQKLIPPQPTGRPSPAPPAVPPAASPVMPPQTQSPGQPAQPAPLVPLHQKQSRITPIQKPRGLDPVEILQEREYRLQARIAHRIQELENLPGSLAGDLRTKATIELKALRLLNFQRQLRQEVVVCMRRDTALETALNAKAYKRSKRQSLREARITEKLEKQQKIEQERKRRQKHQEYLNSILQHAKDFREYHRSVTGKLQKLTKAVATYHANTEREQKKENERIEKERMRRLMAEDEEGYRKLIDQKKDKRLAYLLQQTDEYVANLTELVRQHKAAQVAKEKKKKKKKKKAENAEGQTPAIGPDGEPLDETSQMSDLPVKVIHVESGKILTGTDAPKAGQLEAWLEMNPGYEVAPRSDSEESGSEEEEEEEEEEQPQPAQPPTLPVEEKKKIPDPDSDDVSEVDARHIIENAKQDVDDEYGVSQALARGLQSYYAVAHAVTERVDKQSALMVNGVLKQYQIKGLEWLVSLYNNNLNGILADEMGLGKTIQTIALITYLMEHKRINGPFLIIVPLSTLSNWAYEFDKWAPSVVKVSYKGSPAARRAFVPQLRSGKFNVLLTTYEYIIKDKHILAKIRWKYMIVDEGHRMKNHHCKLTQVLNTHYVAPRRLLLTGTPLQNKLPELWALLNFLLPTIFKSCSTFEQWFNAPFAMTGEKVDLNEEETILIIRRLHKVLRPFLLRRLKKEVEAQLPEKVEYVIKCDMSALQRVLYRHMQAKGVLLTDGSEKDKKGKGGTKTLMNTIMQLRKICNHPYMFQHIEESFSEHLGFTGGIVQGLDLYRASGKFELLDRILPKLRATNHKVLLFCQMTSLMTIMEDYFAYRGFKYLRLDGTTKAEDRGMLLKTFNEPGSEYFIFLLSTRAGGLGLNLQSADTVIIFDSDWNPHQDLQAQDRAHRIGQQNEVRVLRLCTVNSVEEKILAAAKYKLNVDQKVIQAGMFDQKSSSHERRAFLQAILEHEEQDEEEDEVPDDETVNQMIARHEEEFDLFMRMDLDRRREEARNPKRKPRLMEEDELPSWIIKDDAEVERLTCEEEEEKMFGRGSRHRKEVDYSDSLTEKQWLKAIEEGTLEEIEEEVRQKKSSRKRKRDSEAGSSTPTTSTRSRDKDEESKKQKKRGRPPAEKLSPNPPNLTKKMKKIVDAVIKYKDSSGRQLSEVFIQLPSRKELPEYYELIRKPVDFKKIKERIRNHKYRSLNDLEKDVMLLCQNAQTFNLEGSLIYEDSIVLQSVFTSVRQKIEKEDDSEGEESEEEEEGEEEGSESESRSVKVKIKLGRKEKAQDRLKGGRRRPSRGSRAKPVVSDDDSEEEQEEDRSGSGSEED
UniProt P23198: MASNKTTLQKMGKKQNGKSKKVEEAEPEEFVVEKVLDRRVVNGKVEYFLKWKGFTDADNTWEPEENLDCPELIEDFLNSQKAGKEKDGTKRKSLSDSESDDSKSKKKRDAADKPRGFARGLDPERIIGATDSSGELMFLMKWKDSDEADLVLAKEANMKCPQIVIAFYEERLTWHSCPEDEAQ
UniProt P97496: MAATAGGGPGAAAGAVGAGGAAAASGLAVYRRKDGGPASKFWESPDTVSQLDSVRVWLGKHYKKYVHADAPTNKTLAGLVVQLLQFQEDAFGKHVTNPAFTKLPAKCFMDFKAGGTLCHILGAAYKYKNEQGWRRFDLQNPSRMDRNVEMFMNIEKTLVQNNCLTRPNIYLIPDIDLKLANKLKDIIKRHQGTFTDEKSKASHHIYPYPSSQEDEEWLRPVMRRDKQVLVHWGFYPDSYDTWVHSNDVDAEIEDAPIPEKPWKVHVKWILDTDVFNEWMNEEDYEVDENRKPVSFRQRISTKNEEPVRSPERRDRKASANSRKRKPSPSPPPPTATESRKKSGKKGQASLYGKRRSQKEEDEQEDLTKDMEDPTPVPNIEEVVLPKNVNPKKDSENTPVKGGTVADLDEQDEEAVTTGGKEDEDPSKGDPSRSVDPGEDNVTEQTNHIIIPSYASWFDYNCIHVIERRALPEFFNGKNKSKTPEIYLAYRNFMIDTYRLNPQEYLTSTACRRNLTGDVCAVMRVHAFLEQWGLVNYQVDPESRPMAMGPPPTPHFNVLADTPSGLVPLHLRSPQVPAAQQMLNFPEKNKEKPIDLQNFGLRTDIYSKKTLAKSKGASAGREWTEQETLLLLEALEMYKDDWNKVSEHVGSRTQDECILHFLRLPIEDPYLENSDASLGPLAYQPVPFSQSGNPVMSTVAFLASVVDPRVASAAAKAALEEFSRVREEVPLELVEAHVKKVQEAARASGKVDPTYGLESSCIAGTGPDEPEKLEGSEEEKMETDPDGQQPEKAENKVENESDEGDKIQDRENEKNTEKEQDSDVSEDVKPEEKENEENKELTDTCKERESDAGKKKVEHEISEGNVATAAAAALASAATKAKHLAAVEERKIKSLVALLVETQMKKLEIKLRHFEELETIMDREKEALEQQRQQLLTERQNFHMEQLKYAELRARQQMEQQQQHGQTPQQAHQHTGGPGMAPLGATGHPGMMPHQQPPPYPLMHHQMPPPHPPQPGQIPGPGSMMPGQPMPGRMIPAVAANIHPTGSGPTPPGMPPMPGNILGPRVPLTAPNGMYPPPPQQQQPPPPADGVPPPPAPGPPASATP

Columns and labels:
Assay in all cases: co-IP
[1] = biological target: BRG1 (endogenous, mouse ESCs) (mouse (endogenous in mouse ESCs)) (UniProt Q3TKT4)
3×Flag-POGZ (mouse) [2] = biological target: T1, 3×Flag-POGZ (mouse) (UniProt Q8BZH4)
T1 sequence: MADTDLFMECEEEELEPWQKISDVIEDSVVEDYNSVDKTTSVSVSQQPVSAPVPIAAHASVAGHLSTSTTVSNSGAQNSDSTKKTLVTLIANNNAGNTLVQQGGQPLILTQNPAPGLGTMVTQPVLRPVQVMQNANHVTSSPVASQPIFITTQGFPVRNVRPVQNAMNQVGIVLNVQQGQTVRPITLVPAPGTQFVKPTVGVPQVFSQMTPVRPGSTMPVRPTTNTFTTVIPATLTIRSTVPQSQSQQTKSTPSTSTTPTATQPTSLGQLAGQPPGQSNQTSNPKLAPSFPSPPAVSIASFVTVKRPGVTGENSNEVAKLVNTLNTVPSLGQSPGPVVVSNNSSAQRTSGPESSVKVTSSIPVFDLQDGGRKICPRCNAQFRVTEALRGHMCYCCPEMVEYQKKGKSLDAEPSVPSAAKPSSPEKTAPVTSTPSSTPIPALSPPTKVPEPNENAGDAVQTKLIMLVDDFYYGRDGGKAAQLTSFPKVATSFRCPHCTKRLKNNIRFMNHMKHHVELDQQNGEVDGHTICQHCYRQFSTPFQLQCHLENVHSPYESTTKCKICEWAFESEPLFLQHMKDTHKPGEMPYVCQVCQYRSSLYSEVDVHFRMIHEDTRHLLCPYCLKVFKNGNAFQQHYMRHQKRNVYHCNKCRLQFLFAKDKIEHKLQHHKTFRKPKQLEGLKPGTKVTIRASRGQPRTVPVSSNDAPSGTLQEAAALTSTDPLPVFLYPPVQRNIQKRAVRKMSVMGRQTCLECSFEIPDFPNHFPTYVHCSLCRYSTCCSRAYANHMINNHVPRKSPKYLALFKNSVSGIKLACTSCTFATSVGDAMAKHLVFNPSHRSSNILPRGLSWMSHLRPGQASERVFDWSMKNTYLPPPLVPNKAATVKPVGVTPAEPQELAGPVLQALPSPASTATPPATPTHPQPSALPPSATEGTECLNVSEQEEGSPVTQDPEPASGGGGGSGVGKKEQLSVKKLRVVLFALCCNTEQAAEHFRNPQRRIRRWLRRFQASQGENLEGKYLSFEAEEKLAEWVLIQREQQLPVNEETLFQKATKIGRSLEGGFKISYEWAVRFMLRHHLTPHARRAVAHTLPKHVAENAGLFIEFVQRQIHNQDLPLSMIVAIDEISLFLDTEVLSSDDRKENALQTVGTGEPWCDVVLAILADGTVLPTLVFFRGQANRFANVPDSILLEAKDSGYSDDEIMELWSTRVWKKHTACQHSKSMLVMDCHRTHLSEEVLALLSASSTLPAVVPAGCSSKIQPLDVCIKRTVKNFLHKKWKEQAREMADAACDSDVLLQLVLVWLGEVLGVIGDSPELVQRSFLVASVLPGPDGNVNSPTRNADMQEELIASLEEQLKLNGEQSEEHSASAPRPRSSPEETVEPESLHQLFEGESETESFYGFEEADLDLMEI

3×Flag-POGZ (mouse) [3] = biological target: T1, 3×Flag-POGZ (mouse); remark: listed apart in the source
[4] = biological target: T2, POGZ (endogenous, mouse ESCs) (mouse (endogenous in mouse ESCs)) (UniProt Q8BZH4)
T2 sequence: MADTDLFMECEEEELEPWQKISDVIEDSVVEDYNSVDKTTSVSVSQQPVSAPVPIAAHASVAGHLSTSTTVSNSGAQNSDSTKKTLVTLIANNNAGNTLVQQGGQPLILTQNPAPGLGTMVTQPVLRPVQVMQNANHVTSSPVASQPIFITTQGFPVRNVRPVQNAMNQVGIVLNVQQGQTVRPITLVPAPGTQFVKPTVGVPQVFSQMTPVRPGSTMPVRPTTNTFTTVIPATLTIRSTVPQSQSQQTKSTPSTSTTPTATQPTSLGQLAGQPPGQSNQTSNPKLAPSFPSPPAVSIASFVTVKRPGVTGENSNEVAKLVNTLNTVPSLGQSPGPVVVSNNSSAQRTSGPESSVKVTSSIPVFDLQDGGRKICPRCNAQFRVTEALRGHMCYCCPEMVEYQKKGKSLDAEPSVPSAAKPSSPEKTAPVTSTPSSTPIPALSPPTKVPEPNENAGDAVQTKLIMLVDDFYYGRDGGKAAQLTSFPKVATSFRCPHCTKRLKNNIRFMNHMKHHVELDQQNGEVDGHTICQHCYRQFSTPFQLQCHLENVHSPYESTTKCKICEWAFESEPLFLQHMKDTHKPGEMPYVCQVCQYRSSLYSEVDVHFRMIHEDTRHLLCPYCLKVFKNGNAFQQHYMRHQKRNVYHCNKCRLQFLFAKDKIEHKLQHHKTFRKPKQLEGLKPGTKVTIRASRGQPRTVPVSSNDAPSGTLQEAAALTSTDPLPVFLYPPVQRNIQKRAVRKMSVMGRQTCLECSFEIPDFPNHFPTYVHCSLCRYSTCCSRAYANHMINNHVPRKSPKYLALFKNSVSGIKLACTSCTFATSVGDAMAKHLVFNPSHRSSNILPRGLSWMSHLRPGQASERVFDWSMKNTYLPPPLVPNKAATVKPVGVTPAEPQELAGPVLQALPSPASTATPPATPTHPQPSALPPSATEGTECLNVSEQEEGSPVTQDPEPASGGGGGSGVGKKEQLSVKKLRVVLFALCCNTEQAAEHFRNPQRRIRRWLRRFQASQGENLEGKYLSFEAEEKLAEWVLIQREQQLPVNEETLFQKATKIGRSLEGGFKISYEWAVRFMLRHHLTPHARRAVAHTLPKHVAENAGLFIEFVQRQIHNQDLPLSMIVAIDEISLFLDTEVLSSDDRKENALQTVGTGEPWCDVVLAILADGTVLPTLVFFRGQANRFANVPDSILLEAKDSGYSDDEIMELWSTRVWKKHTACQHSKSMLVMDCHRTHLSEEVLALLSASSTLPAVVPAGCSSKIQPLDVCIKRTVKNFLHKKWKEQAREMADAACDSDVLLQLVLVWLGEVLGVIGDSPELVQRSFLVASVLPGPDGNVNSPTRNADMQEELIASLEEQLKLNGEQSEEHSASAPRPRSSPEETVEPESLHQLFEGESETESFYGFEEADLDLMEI

[5] = biological target: T3, ADNP (mouse ESCs) (mouse (endogenous in mouse ESCs)) (UniProt Q9Z103)
T3 sequence: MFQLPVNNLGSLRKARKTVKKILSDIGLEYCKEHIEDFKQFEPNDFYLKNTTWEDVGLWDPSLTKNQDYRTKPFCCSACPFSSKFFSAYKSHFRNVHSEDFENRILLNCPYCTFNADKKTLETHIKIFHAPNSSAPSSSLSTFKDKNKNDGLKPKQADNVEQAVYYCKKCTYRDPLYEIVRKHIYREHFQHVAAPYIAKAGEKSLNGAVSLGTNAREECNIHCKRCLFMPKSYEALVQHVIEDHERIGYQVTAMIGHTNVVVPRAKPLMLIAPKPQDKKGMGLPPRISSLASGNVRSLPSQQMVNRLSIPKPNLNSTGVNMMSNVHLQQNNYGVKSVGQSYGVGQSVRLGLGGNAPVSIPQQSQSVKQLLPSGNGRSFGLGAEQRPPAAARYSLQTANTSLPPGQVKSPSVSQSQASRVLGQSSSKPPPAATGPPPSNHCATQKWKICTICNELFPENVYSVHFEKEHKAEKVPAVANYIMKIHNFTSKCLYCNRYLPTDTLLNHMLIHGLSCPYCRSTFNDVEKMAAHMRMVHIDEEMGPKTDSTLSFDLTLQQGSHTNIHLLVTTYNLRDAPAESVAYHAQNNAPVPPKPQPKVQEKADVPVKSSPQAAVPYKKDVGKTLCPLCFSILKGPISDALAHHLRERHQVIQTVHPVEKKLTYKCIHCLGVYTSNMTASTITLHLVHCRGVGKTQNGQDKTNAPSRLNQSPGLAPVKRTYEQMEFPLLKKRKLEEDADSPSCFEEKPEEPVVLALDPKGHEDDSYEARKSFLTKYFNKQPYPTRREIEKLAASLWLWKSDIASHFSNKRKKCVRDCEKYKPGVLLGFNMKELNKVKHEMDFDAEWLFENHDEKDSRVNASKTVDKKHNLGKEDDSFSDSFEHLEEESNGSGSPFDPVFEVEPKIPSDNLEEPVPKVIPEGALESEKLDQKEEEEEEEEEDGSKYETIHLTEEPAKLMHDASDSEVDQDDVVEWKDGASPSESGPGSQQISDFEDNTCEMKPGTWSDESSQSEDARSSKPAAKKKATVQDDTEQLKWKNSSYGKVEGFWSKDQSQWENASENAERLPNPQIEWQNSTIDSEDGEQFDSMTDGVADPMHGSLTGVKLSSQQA

“HP1γ/CBX3 (endogenous, mouse ESCs) (from UniProt P23198 1-183)” was tested, and the binding [1] was “binds”, the binding (3×Flag-POGZ (mouse) [2]) was “binds” and the binding (3×Flag-POGZ (mouse) [3]) was “binds”.

In the case of “SMARCC1/BAF155 (endogenous, mouse ESCs) (from UniProt P97496 1-1104)”, the binding (3×Flag-POGZ (mouse) [3]) is reported as “binds weakly”.

B1: ADNP (mouse ESCs) (protein, UniProt Q9Z103 1-1108)
chain: MFQLPVNNLGSLRKARKTVKKILSDIGLEYCKEHIEDFKQFEPNDFYLKNTTWEDVGLWDPSLTKNQDYRTKPFCCSACPFSSKFFSAYKSHFRNVHSEDFENRILLNCPYCTFNADKKTLETHIKIFHAPNSSAPSSSLSTFKDKNKNDGLKPKQADNVEQAVYYCKKCTYRDPLYEIVRKHIYREHFQHVAAPYIAKAGEKSLNGAVSLGTNAREECNIHCKRCLFMPKSYEALVQHVIEDHERIGYQVTAMIGHTNVVVPRAKPLMLIAPKPQDKKGMGLPPRISSLASGNVRSLPSQQMVNRLSIPKPNLNSTGVNMMSNVHLQQNNYGVKSVGQSYGVGQSVRLGLGGNAPVSIPQQSQSVKQLLPSGNGRSFGLGAEQRPPAAARYSLQTANTSLPPGQVKSPSVSQSQASRVLGQSSSKPPPAATGPPPSNHCATQKWKICTICNELFPENVYSVHFEKEHKAEKVPAVANYIMKIHNFTSKCLYCNRYLPTDTLLNHMLIHGLSCPYCRSTFNDVEKMAAHMRMVHIDEEMGPKTDSTLSFDLTLQQGSHTNIHLLVTTYNLRDAPAESVAYHAQNNAPVPPKPQPKVQEKADVPVKSSPQAAVPYKKDVGKTLCPLCFSILKGPISDALAHHLRERHQVIQTVHPVEKKLTYKCIHCLGVYTSNMTASTITLHLVHCRGVGKTQNGQDKTNAPSRLNQSPGLAPVKRTYEQMEFPLLKKRKLEEDADSPSCFEEKPEEPVVLALDPKGHEDDSYEARKSFLTKYFNKQPYPTRREIEKLAASLWLWKSDIASHFSNKRKKCVRDCEKYKPGVLLGFNMKELNKVKHEMDFDAEWLFENHDEKDSRVNASKTVDKKHNLGKEDDSFSDSFEHLEEESNGSGSPFDPVFEVEPKIPSDNLEEPVPKVIPEGALESEKLDQKEEEEEEEEEDGSKYETIHLTEEPAKLMHDASDSEVDQDDVVEWKDGASPSESGPGSQQISDFEDNTCEMKPGTWSDESSQSEDARSSKPAAKKKATVQDDTEQLKWKNSSYGKVEGFWSKDQSQWENASENAERLPNPQIEWQNSTIDSEDGEQFDSMTDGVADPMHGSLTGVKLSSQQA
With B1 the binding [4] was “no binding”.

B2: POGZ (endogenous, mouse ESCs) (protein, UniProt Q8BZH4 1-1409)
chain: MADTDLFMECEEEELEPWQKISDVIEDSVVEDYNSVDKTTSVSVSQQPVSAPVPIAAHASVAGHLSTSTTVSNSGAQNSDSTKKTLVTLIANNNAGNTLVQQGGQPLILTQNPAPGLGTMVTQPVLRPVQVMQNANHVTSSPVASQPIFITTQGFPVRNVRPVQNAMNQVGIVLNVQQGQTVRPITLVPAPGTQFVKPTVGVPQVFSQMTPVRPGSTMPVRPTTNTFTTVIPATLTIRSTVPQSQSQQTKSTPSTSTTPTATQPTSLGQLAGQPPGQSNQTSNPKLAPSFPSPPAVSIASFVTVKRPGVTGENSNEVAKLVNTLNTVPSLGQSPGPVVVSNNSSAQRTSGPESSVKVTSSIPVFDLQDGGRKICPRCNAQFRVTEALRGHMCYCCPEMVEYQKKGKSLDAEPSVPSAAKPSSPEKTAPVTSTPSSTPIPALSPPTKVPEPNENAGDAVQTKLIMLVDDFYYGRDGGKAAQLTSFPKVATSFRCPHCTKRLKNNIRFMNHMKHHVELDQQNGEVDGHTICQHCYRQFSTPFQLQCHLENVHSPYESTTKCKICEWAFESEPLFLQHMKDTHKPGEMPYVCQVCQYRSSLYSEVDVHFRMIHEDTRHLLCPYCLKVFKNGNAFQQHYMRHQKRNVYHCNKCRLQFLFAKDKIEHKLQHHKTFRKPKQLEGLKPGTKVTIRASRGQPRTVPVSSNDAPSGTLQEAAALTSTDPLPVFLYPPVQRNIQKRAVRKMSVMGRQTCLECSFEIPDFPNHFPTYVHCSLCRYSTCCSRAYANHMINNHVPRKSPKYLALFKNSVSGIKLACTSCTFATSVGDAMAKHLVFNPSHRSSNILPRGLSWMSHLRPGQASERVFDWSMKNTYLPPPLVPNKAATVKPVGVTPAEPQELAGPVLQALPSPASTATPPATPTHPQPSALPPSATEGTECLNVSEQEEGSPVTQDPEPASGGGGGSGVGKKEQLSVKKLRVVLFALCCNTEQAAEHFRNPQRRIRRWLRRFQASQGENLEGKYLSFEAEEKLAEWVLIQREQQLPVNEETLFQKATKIGRSLEGGFKISYEWAVRFMLRHHLTPHARRAVAHTLPKHVAENAGLFIEFVQRQIHNQDLPLSMIVAIDEISLFLDTEVLSSDDRKENALQTVGTGEPWCDVVLAILADGTVLPTLVFFRGQANRFANVPDSILLEAKDSGYSDDEIMELWSTRVWKKHTACQHSKSMLVMDCHRTHLSEEVLALLSASSTLPAVVPAGCSSKIQPLDVCIKRTVKNFLHKKWKEQAREMADAACDSDVLLQLVLVWLGEVLGVIGDSPELVQRSFLVASVLPGPDGNVNSPTRNADMQEELIASLEEQLKLNGEQSEEHSASAPRPRSSPEETVEPESLHQLFEGESETESFYGFEEADLDLMEI
With B2 the binding [5] was “no binding”.
